# The other results are listed elsewhere or left out.
# The chains behind the UniProt entries cited, without tags or fusion partners. Where a name states a change or a piece, a line headed by the entry shows the natural chain unless it says otherwise.
# UniProt Q9BUH6, whole entry, looked up: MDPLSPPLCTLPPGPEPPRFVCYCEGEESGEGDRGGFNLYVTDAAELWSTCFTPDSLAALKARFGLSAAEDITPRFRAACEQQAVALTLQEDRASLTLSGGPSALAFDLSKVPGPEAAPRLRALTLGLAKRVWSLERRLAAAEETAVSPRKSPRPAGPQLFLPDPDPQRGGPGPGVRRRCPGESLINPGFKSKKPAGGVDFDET
# UniProt O95613: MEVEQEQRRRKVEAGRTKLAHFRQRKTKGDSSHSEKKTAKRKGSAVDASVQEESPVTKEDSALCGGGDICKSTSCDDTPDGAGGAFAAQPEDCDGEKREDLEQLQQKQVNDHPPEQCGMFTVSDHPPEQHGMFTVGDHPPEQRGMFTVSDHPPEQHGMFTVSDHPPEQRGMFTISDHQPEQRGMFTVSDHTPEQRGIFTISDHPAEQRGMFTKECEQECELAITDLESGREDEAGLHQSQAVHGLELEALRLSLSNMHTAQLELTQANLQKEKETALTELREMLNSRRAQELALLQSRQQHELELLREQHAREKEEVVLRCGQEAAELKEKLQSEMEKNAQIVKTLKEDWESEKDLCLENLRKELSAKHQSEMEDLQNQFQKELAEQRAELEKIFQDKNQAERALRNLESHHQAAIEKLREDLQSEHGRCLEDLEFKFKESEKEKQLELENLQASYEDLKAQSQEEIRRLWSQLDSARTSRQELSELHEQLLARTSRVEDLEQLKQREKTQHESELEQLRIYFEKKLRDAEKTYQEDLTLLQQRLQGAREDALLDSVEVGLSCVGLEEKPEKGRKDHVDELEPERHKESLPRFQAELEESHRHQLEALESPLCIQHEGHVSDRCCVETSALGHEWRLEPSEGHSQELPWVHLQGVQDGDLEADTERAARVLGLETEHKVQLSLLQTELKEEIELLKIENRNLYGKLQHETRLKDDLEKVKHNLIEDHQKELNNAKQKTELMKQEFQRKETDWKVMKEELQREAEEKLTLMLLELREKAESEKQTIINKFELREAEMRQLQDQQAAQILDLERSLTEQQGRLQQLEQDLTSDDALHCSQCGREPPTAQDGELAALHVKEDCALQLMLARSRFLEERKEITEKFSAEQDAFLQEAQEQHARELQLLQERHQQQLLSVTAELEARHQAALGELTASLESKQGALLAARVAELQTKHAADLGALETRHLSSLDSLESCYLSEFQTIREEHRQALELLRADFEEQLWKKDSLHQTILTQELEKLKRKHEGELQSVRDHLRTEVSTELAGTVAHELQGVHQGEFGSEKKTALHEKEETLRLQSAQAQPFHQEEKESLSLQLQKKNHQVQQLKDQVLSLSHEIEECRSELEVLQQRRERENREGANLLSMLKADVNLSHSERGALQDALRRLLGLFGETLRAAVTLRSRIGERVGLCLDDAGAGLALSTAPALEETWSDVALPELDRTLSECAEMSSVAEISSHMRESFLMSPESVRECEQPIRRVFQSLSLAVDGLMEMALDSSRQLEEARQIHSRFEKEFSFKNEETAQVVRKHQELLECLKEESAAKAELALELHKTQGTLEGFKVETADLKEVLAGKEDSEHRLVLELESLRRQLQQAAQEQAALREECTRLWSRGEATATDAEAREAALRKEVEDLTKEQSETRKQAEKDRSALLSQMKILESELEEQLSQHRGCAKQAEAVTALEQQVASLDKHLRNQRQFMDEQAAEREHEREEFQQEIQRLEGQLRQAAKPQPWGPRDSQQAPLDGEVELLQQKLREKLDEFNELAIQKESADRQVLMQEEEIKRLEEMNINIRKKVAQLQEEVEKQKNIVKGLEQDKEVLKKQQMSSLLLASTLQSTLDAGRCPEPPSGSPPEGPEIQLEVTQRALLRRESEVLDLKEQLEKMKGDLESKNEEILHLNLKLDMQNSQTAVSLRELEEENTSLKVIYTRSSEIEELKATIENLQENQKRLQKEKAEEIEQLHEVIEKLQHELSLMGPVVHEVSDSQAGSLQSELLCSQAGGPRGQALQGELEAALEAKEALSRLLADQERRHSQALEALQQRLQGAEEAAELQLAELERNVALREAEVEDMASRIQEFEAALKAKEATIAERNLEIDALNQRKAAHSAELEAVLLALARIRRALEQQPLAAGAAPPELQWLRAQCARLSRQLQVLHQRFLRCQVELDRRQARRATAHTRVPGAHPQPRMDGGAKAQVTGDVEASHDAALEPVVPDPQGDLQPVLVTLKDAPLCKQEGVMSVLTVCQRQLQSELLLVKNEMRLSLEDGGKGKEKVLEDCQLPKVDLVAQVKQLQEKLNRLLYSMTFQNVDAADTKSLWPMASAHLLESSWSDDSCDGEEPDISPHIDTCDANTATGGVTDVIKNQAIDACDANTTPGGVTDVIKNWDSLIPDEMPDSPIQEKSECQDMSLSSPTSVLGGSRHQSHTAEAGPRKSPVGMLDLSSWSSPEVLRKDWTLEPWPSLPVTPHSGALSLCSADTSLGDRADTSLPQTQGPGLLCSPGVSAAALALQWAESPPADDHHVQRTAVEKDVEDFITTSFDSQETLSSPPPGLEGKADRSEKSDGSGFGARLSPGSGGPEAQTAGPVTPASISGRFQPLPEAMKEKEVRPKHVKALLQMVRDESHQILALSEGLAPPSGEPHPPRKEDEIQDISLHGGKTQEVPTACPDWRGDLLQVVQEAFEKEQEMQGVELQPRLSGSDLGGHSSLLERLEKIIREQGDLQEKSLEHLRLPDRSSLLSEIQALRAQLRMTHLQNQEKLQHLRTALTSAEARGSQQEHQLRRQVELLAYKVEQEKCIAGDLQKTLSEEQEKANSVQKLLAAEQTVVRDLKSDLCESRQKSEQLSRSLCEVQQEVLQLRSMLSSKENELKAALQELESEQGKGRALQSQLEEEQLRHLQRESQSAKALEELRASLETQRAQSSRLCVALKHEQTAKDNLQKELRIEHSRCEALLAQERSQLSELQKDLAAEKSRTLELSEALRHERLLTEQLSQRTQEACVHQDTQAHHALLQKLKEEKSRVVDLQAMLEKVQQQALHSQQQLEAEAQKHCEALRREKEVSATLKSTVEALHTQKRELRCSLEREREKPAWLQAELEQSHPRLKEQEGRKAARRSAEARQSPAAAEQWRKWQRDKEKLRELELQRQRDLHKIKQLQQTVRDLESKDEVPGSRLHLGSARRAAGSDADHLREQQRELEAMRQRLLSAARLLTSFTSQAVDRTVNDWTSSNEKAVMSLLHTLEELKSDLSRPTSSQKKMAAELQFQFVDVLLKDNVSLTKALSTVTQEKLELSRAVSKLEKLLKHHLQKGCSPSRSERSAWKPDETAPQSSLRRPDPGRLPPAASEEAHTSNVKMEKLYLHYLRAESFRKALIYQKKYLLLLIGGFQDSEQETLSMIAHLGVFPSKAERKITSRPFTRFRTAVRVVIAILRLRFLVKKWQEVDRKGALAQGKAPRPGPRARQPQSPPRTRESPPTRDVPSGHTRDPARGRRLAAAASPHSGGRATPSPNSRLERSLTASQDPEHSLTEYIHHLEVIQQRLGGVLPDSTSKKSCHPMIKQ
# UniProt Q9NTI5: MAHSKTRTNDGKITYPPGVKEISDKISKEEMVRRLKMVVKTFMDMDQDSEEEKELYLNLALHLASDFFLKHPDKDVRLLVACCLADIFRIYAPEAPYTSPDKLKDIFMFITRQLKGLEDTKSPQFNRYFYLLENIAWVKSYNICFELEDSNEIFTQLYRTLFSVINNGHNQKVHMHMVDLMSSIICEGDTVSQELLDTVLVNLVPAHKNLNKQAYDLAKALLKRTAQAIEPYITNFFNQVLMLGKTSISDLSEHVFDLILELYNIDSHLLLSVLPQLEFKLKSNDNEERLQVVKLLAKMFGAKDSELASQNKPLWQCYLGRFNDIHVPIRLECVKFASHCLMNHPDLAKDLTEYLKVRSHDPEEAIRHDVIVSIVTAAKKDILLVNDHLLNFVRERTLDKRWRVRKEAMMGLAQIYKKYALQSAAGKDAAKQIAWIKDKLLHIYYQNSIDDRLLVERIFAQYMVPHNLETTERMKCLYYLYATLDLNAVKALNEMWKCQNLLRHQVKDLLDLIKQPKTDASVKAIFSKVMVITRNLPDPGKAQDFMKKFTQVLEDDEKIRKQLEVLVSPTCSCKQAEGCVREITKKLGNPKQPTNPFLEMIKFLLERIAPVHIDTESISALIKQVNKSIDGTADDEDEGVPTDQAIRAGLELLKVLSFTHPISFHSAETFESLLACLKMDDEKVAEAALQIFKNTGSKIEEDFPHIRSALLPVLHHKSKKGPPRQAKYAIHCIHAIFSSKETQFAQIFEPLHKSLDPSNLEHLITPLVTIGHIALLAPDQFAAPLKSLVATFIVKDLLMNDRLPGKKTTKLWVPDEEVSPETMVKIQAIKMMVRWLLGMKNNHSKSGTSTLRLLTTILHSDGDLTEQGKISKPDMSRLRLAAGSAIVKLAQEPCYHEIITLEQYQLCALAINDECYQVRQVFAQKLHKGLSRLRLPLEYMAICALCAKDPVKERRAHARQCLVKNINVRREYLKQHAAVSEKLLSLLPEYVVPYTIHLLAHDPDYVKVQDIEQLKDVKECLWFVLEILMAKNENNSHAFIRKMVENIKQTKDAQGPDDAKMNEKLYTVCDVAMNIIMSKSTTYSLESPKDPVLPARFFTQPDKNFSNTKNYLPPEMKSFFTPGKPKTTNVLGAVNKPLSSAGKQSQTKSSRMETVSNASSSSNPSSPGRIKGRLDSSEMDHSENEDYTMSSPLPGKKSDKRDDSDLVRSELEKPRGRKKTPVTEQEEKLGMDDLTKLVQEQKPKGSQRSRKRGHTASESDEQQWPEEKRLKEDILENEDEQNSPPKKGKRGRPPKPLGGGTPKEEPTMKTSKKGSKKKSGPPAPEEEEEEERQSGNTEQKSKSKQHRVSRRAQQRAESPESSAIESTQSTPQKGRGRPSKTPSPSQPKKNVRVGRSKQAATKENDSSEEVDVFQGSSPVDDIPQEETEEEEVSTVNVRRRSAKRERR
# UniProt Q16822, whole entry, looked up: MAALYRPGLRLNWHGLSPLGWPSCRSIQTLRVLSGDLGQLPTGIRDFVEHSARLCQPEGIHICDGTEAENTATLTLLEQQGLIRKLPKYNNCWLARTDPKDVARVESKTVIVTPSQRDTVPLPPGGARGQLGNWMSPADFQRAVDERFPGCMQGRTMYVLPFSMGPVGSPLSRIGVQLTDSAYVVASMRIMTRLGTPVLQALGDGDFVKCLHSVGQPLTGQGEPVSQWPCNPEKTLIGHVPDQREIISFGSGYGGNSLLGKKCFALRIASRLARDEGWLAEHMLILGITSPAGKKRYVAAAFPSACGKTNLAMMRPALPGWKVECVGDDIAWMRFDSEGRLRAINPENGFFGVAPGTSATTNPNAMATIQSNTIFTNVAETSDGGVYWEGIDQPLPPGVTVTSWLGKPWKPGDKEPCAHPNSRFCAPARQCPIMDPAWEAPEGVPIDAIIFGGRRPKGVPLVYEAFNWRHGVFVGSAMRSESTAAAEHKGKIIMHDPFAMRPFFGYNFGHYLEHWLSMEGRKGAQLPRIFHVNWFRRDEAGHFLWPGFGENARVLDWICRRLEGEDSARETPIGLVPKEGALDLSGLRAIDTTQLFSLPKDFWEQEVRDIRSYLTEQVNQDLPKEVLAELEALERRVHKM
# UniProt P11177, whole entry, looked up: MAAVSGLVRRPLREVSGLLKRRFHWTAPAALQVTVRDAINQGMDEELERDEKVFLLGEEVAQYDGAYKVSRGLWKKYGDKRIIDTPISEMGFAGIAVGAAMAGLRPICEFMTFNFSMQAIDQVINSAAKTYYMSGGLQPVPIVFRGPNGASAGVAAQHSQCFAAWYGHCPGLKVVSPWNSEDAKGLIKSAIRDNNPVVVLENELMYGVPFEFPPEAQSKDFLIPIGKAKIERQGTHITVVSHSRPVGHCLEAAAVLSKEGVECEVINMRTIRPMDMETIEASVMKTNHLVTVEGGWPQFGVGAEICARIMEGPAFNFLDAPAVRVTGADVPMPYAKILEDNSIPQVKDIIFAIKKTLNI
# UniProt Q15084: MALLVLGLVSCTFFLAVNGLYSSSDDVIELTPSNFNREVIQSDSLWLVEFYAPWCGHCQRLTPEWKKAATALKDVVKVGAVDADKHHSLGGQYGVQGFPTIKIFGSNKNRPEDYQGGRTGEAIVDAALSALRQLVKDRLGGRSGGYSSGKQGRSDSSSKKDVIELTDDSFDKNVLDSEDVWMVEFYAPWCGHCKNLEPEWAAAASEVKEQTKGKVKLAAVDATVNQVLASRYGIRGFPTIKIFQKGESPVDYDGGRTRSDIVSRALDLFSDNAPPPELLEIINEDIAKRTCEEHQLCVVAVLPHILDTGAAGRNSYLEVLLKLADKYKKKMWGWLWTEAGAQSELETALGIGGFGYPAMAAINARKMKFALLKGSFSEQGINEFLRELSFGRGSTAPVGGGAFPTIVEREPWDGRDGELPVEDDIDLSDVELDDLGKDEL
# Compound: Cc1cc(ccc1-c1ccccc1)C(=O)N1CCCN(CC1)C(=O)CCl [compound 10]
# Assay: probe-labelled cysteine peptide fold change vs DMSO (competition) (log2 fold change); higher = less target engagement (more negative = stronger competition)
# Settings: THP-1, incubation time: 4 h
# 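Note: competitive profiling in live THP-1 cells: cysteine peptides tagged with an iodoacetamide desthiobiotin (IA-DTB) probe, intensity after compound treatment relative to DMSO-treated cells.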
Target,probe-labelled cysteine peptide fold change (10 µM),probe-labelled cysteine peptide fold change (50 µM)
PDLIM5_Q96HC4_213_QPTVTSVCSETSQELAEGQRR (UniProt Q96HC4),-0.255,-0.205
PCNA_P12004_162_DLSHIGDAVVISCAK (UniProt P12004),0.132,0.127
PAXX_Q9BUH6_9_MDPLSPPLCTLPPGPEPPR (UniProt Q9BUH6),-0.208,-0.123
PDLIM2_Q96JY6_160_SFQSLACSPGLPAADR (UniProt Q96JY6),-0.216,-0.343
PCNT_O95613_321_CGQEAAELK (UniProt O95613),0.138,-0.00438
PDS5B_Q9NTI5_946_LPLEYMAICALCAK (UniProt Q9NTI5),0.129,0.149
PDS5A_Q29RF7_742_QAVHCIHAIFTNK (UniProt Q29RF7),0.159,0.0956
PAXIP1_Q6ZW49_671_CVTAHWLNTVLK (UniProt Q6ZW49),0.00423,-0.477
PCK2_Q16822_559_VLDWICR (UniProt Q16822),0.0851,0.0116
PDPR_Q8NCN5_85_FCAGILSTAR (UniProt Q8NCN5),-0.0294,-0.031
PDIA3_P30101_85_VDCTANTNTCNK (UniProt P30101),-0.0212,-0.0482
PCM1_Q15154_1867_NDQNNCPVK (UniProt Q15154),-0.33,0.367
PDHB_P11177_249_PVGHCLEAAAVLSK (UniProt P11177),0.0744,-0.102
PCM1_Q15154_1616_EHMDEVCSSQLLTSVRR (UniProt Q15154),0.136,-0.639
PDIA6_Q15084_297_RTCEEHQLCVVAVLPHILDTGAAGR (UniProt Q15084),-0.00692,-0.143
PDLIM7_Q9NR12_367+370_MTWHVHCFTCAACK (UniProt Q9NR12),0.013,-0.216
PDIA6_Q15084_190_NVLDSEDVWMVEFYAPWCGHCK (UniProt Q15084),-0.574,-1.04
PCK2_Q16822_325_VECVGDDIAWMR (UniProt Q16822),-0.00811,-0.0679

# Part of the list above, with tabs:
Target	probe-labelled cysteine peptide fold change (10 µM)	probe-labelled cysteine peptide fold change (50 µM)
PAXX_Q9BUH6_9_MDPLSPPLCTLPPGPEPPR (UniProt Q9BUH6)	-0.208	-0.123
PCM1_Q15154_1867_NDQNNCPVK (UniProt Q15154)	-0.33	0.367

# (listing goes on)

Target,probe-labelled cysteine peptide fold change (10 µM),probe-labelled cysteine peptide fold change (50 µM)
PAXX_Q9BUH6_24_FVCYCEGEESGEGDR (UniProt Q9BUH6),-0.0295,0.106
PCF11_O94913_1518_NELQEPCDSPK (UniProt O94913),-0.142,-0.22
PDCD11_Q14690_1154_QYQAGQTVTCFLK (UniProt Q14690),-0.169,0.294
PDHB_P11177_161_GPNGASAGVAAQHSQCFAAWYGHCPGLK (UniProt P11177),0.0402,0.218
PDLIM1_O00151_263_CGTGIVGVFVK (UniProt O00151),0.0159,-0.62
PDHX_O00330_307_STVPHAYATADCDLGAVLK (UniProt O00330),-0.233,-0.0607
PCBP1_Q15365_201_CSDAAGYPHATHDLEGPPLDAYSIQGQHTISPLDLAK (UniProt Q15365),-0.148,-0.076
PCNT_O95613_974_HLSSLDSLESCYLSEFQTIR (UniProt O95613),0.0332,0.0375
PARP4_Q9UKK3_45_FSFSLNPQCTHIILDNADVLSQYQLNSIQK (UniProt Q9UKK3),0.267,-0.23
PDCD11_Q14690_535_LPVITCYADAKPGLQTHGFIIR (UniProt Q14690),-0.0372,0.0233
PARS2_Q7L3T8_68_SDDLTCK (UniProt Q7L3T8),-0.0866,-0.0199
PCBP3_P57721_195_QICVVMLESPPK (UniProt P57721),0.0221,-0.183
PDS5B_Q9NTI5_732_YAIHCIHAIFSSK (UniProt Q9NTI5),-0.000746,0.245
PDHA1_P08559_261_GDFIPGLRVDGMDILCVR (UniProt P08559),-0.0624,-0.427
PDXP_Q96GD0_171_DPECLLVATDRDPWHPLSDGSR (UniProt Q96GD0),-0.0117,0.321
PDK1_Q15118_240_RLCDLYYINSPELELEELNAK (UniProt Q15118),0.295,0.281
PDSS2_Q86YH6_71_CLLSDELSNIAMQVR (UniProt Q86YH6),-0.424,-2.09
PATZ1_Q9HBE1_297_EAGILPCGLCGK (UniProt Q9HBE1),0.0467,0.0544
